The values below are quoted from earlier work in article PMC9740255 (Cells, 2022).

As a reminder, the Ki is a measure of affinity in units of concentration, obtained from inhibition or displacement.

The target of this data set is hNET. More on the design: method as in ref 32 (Tatsumi et al. 1997). As to conditions: footnote a: hNET in HEK293 cells, [3H]nisoxetine; ref 32 (Tatsumi et al. 1997); read-out: NET Ki; cited from earlier work.

For the compound `CNCCC(Oc1ccc(C(F)(F)F)cc1)c1ccccc1` (stereo not shown) [Fluoxetine], the Ki is 0.24 ± 0.01 µM.
